## Library screen at single concentrations

Data taken from ChEMBL document CHEMBL3988442, “University of Dundee, Small-Polar-MMV Screening Library” (2021).

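Whole-parasite assay of Trypanosoma brucei over 72 hours; the read-out is not stated. Compounds at 30 µM. Higher reads as stronger inhibition (inferred: compounds with an IC50 in retests scored well above the rest). Values scatter widely below zero; nearly all retest evidence comes from the higher of the two concentrations used. Size under these conditions: about 64,000 compounds, about 940 of them at 50% or above in at least one test.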

Values are the deposited “Percent Effect”, in %.
The controls that fix the scale are not given in the record; negative values are as filed.
Compounds were drawn at random from those tested, without regard to their results.

| SMILES | percent effect |
|---|---|
| `Cc1ncsc1C(=O)N1CCN(Cc2ccccc2)CC1C` (stereo unspecified) | 3.203 |
| `Cc1cnn(C2CN(c3ncnc4[nH]ccc34)C2)c1` | 16.3 |
| `O=c1[nH]nc(SCC2CCCCO2)n1C1CC1` (stereo unspecified) | -16.48 |
| `O=C1CCC2(CCCN(C(=O)NCc3ccccc3)CC2)N1` (stereo unspecified) | 2.485 |
| `Cc1nnc(-c2cccc(N3CCC(NC(C)CC(C)C)CC3)c2)s1` (stereo unspecified) | -32.94 |
| `O=C(O)CCc1nc2nccc(-c3ccc(F)cc3)n2n1` | -50.72 |
| `CNS(=O)(=O)CC(=O)NCc1cc2c(s1)CCCCC2` | 5.151 |
| `c1cc(CN2CCN(Cc3cscn3)CC2)cs1` | -0.1527 |
| `CN(C(=O)Cn1nc(-c2cccs2)ccc1=O)C1CCS(=O)(=O)C1` (stereo unspecified) | -38.31 |
| `O=C(CCC1CC1)N1CCC(n2cc(C3(O)CCCC3)nn2)CC1` | -82.99 |
| `Cc1ccc(CNC(=O)c2nn(C)c3c2CS(=O)(=O)CC3)o1` | -9.413 |
| `COc1ccc(S(=O)(=O)N2CCOC[C@H](Oc3cnccn3)C2)cc1` | 17.98 |
| `CN(CCOc1cccc(Cl)c1)Cc1nnc(C(C)(C)C)o1` | 25.6 |
| `[H][C@]12CC[C@]([H])(CN(CC(=O)N(C)C)C1)N(Cc1ccc3nsnc3c1)C2` | -31.93 |
| `CCc1c(-c2ccccc2)nc2c(c(C)c(C)n2CCN(C)C)c1N` | 24.71 |
| `CC(C)Cn1c(=O)n(CCCn2cccn2)c2cc(C(=O)O)cnc21` | -30.07 |
| `CN1CCN(c2ccnc3c(F)cc(Br)cc23)CC1` | 5.994 |
| `Cc1cc(C(=O)N2CCc3ncnc(-c4cnn(C)c4)c3CC2)no1` | -51.6 |
| `O=C(NCCN1CCCC1)C1(c2ccc(Cl)cc2)CCOCC1` | 10.09 |
| `COCC(=O)N1CCCC(c2noc3nc(C)cc(C(F)(F)F)c23)C1` (stereo unspecified) | -19.65 |
| `CCc1ncc2c(n1)CN(c1cc(NCCO)nc(N)n1)C2` | -116.6 |
| `[H][C@@]12CCN(C(=O)c3c(C)noc3C)C[C@@]1([H])O[C@H](c1nccs1)C2` | 14.98 |
| `CCOc1ccc(NS(=O)(=O)c2cc(C)c(C(=O)O)s2)cc1F` | -3.256 |
| `Cc1cc(C)n(C2CN(Cc3nc4cc(Cl)ccc4n3C)C2)n1` | -17.44 |
| `CCN1CCCN(S(=O)(=O)c2cnc3onc(C)c3c2)CC1` | 9.428 |
| `Cl.Cl.[H][C@@]12CC[C@@H](COCc3csc(C)n3)O[C@]1([H])CCN2` | -61.27 |
| `O=C(O)C(F)(F)F.[H][C@@]12CN(CC(=O)N(C)C)C[C@]1([H])C(=O)N(Cc1cccc(F)c1)C2` | -13.5 |
| `COc1cccc(-c2nccnc2C2CCN(C(C)=O)CC2)c1` | 12.22 |
| `NC(=O)NCC1CCCCN1C(=O)c1cccc(Cl)c1` (stereo unspecified) | -13.75 |
| `CCN(C(=O)c1nc2c(s1)CCCN2S(C)(=O)=O)C(C)C` | -4.054 |
| `COCc1nc(C(=O)NS(=O)(=O)c2ccc(C)cc2C)cs1` | 15.55 |
| `Cc1nc(CNC(=O)c2cc(COc3ccccc3)[nH]n2)n[nH]1` | -116.9 |
| `Cc1ccc(NCCCNc2nccc(-c3cn(C)nc3C)n2)nc1` | -19.35 |
| `CN1C(=O)CCC12CCN(Cc1ccco1)CC2` | -12.88 |
| `N#Cc1cccnc1N1CCCC(CO)(Cc2cccc(Cl)c2)C1` (stereo unspecified) | -45.72 |
| `CC(C)C(=O)NCc1ccnc(Oc2ccc(F)cc2)c1` | -24 |
| `Cc1noc(-c2ccc(N3CCC[C@H]3CO)nc2)n1` | 1.341 |
| `CN(Cc1ccco1)C(=O)c1ccc(=O)n(C)c1` | -5.558 |
| `CC(C)c1cc(NCC2(N3CCOCC3)CCCCC2)ncn1` | -64.02 |
| `O=C(CCOCC(F)(F)F)N1CCCC1c1noc(C2CC2)n1` (stereo unspecified) | 13.83 |
| `CN(C1CCCN(c2ccccn2)C1)S(C)(=O)=O` (stereo unspecified) | 0.9828 |
| `Cn1ccnc1COc1ccc(CN2CCN(CCO)CC2)cc1` | -21.68 |
| `Cc1nc(C)n(CC2CCCCN2CC(=O)Nc2nncs2)n1` (stereo unspecified) | -13.6 |
| `Cc1c(C(=O)N2CCCN(S(C)(=O)=O)CC2)cnn1C` | -7.062 |
| `CN1CCN(C(=O)c2ccnc(N3CCOC(C(F)(F)F)C3)c2)CC1` (stereo unspecified) | -38.61 |
| `O=C(Nc1cn[nH]c1)N1CCCCCC1c1ccncc1` (stereo unspecified) | -31.43 |
| `CN1CCN(c2ncccn2)CC(C(=O)N(C)C)C1` (stereo unspecified) | -26.5 |
| `COCc1noc(Cn2ncn3cccc3c2=O)n1` | -26.76 |
| `COCCn1c(=O)n(Cc2ccccc2C)c2cc(C(=O)O)ccc21` | -67.04 |
| `COC(CNC(=O)N1CCC(n2cncn2)CC1)c1ccccc1` (stereo unspecified) | -15.1 |
| `[H][C@@]12CN(c3ccccn3)C[C@]1([H])OCCN2CC(=O)N(C)C` | -28.68 |
| `O=C(O)C(F)(F)F.[H][C@@]12C[C@H](C(=O)NC)[C@@]([H])(CN(Cc3cccc(C)c3)C1)O2` | 8.8 |
| `CN1CCC(N(Cc2ccccc2)C(=O)c2ccn3cncc3c2)CC1` | -47.48 |
| `CC(C)(C)c1ncc(C(=O)N2CCC(N3CCSCC3)CC2)c(O)n1` | -5.783 |
| `CCc1nnc2n1CCN(Cc1noc(-c3cccc(C)c3)n1)C2` | 1.02 |
| `CCN(CC)c1ncc(CNC2CCc3nc(C(C)C)nn3C2)s1` (stereo unspecified) | 4.664 |
| `O=C(Cc1ccn[nH]1)N1CCc2cc(Br)sc2C1` | -36.13 |
| `O=C(CCN1CCCCC1)N1CCC(Cc2ccc(CO)cc2)C1` (stereo unspecified) | -23.41 |
| `O=C(O)C(F)(F)F.[H][C@@]12CC(=O)N(c3ccsc3)[C@@]1([H])CCN2Cc1ccc(C)o1` | -17.3 |
| `O=C(COCC1CC1)N1CCSCC1` | -17.97 |
| `O=C(O)CSc1nnc(-c2ccn[nH]2)n1-c1cccc(C(F)(F)F)c1` | -19.33 |
| `Cc1[nH]c2c(C)ccc(C)c2c1CC(=O)NC1CCCNC1=O` (stereo unspecified) | -51.45 |
| `CCCC(=O)N1CCN(Cc2cc(-c3ccncc3)nn2C)CC1` | -11.06 |
| `CC(C)N(C)Cc1noc2c1CN(C(=O)c1cnccn1)CC2` | -29.05 |
| `OC1(CNCCc2csc(-c3ncccn3)n2)CCNC1` (stereo unspecified) | 6.795 |
| `COc1ccc(CNc2n[nH]c(C)n2)cc1` | -17.93 |
| `COCCN1CCCn2cnc(CN(C)C(C)C)c2C1.O=C(O)C(F)(F)F.O=C(O)C(F)(F)F` | -22.99 |
| `COCC1CN(Cc2csc(C)n2)Cc2nccn2C1.O=C(O)C(F)(F)F` (stereo unspecified) | -27.03 |
| `CCOCC(=O)N1CCc2nc(C)nc(NC(C)C)c2CC1` | -65.57 |
| `O=C(O)C(F)(F)F.O=C(O)C(F)(F)F.c1ccc(CNCC2Cn3nnc(-c4ccncc4)c3CO2)nc1` (stereo unspecified) | -38.44 |
| `CCC1C(=O)NCCN1c1ccnc(C(C)(C)C)n1` (stereo unspecified) | -17.6 |
| `CC(c1ccon1)N(C)Cc1cc(O)c2cc(F)ccc2n1` (stereo unspecified) | 3.205 |
| `Cn1ccc(CN2CCCC23CCN(Cc2nccn2C)CC3)n1.O=C(O)C(F)(F)F.O=C(O)C(F)(F)F` | -80.47 |
| `CCC[C@@H]1CN(C(=O)c2ccccc2C(C)=O)C[C@H]1N(C)C` | -81.97 |
| `O=C(O)C(F)(F)F.[H][C@]12CCC(=O)N(c3cccnc3)[C@@]1([H])CCN2C(=O)c1cnc(C)cn1` | -28.21 |
| `[H][C@]12CCN(C(=O)COC)[C@@]1([H])CC[C@@H](COCc1csc(C)n1)O2` | -17.88 |
| `COCC(C)NC(=O)N1CCN(S(C)(=O)=O)CC1` (stereo unspecified) | -34.75 |
| `Cc1cc(F)ccc1OC1(C(=O)O)CCN(Cc2nccn2C)CC1` | -85.44 |
| `NC(=O)C1CCN(C(=O)Cc2cnc(-c3c(Cl)cccc3Cl)s2)CC1` | -43.74 |
| `COCCCn1ccc(NC(=O)NCCCNc2ccccc2)n1` | -40.8 |
| `CC(C)C(NC(=O)NCCNc1ccccn1)c1cccs1` (stereo unspecified) | 9.156 |
| `OC(COc1ccc(F)cc1)CN1CCC(Cn2cccn2)CC1` (stereo unspecified) | 18.34 |
| `Cc1nc(O)cc(C2CCN(Cc3ccc(F)c(F)c3)C2)n1.O=C(O)CC(O)(CC(=O)O)C(=O)O` (stereo unspecified) | 13.84 |
| `CN(CC(=O)N1CCC(Oc2ccc(C(F)(F)F)cn2)CC1)S(C)(=O)=O` | 4.601 |
| `CN(C(=O)c1cccc(C(=O)NCC(F)(F)F)c1)c1ccccc1` | -7.939 |
| `COCC(=O)N1CCCC1c1ccc(C(=O)NCc2ccccc2Cl)s1` (stereo unspecified) | -8.959 |
| `COc1ccc(CN(C(=O)C2CCCS2)c2ccncc2)cc1` (stereo unspecified) | -25.69 |
| `CSc1ccc(C(=O)N2CCOCC2c2c(C)n[nH]c2C)o1` (stereo unspecified) | -4.665 |
| `O=C(COc1ccc2c(c1)CCC2)N1CCCC(n2cccn2)C1` (stereo unspecified) | -10.5 |
| `CCc1nnc(SCC(=O)N2CCc3[nH]nc(C4CCC4)c3C2)o1` | 0.01463 |
| `CN(C)CCC1CCCCN1Cc1cnc(-c2ccccn2)nc1` (stereo unspecified) | -14.95 |
| `NS(=O)(=O)c1cnn(-c2ccc(NC(=O)CC3CCCC3)cn2)c1` | -44.93 |

Repeated from the top, 8 entries:

* Cc1ncsc1C(=O)N1CCN(Cc2ccccc2)CC1C (stereo unspecified) : 3.203%
* Cc1cnn(C2CN(c3ncnc4[nH]ccc34)C2)c1 : 16.3%
* O=c1[nH]nc(SCC2CCCCO2)n1C1CC1 (stereo unspecified) : -16.48%
* O=C1CCC2(CCCN(C(=O)NCc3ccccc3)CC2)N1 (stereo unspecified) : 2.485%
* Cc1nnc(-c2cccc(N3CCC(NC(C)CC(C)C)CC3)c2)s1 (stereo unspecified) : -32.94%
* O=C(O)CCc1nc2nccc(-c3ccc(F)cc3)n2n1 : -50.72%
* CNS(=O)(=O)CC(=O)NCc1cc2c(s1)CCCCC2 : 5.151%
* c1cc(CN2CCN(Cc3cscn3)CC2)cs1 : -0.1527%